The source of these data is article PMC3823998, “Structural and Functional Characterization of the Redβ Recombinase from Bacteriophage λ” (PLoS ONE, 2013).

In one test the target is T1, Redβ K148A (Bacteriophage λ (Enterobacteria phage λ), UniProt P03698 1-261, K148A).
T1 sequence: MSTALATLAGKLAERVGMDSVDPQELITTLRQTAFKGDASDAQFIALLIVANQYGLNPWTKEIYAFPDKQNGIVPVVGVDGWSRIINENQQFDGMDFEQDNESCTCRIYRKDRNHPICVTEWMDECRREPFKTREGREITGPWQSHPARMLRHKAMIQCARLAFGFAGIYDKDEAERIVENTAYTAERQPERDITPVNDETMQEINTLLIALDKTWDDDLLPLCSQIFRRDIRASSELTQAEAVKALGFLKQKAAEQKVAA
Nature of the test: negative-stain transmission electron microscopy; 10 µM protein without ssDNA, 20 mM potassium phosphate pH 6.0, 20 mM MgCl2, 37°C 40 min, fixed with 0.6% glutaraldehyde, diluted 5-fold, stained with 3% phosphotungstic acid; self-association; both purified.

A further test deals with T2, Redβ R149A (Bacteriophage λ (Enterobacteria phage λ), UniProt P03698 1-261, R149A).
T2 sequence: T1 sequence with A148K, R149A
Described as above.

Positions count from the first letter of the chain named. Results are given in words; binding and its absence hold for the method and conditions named. Some results given as binding are weak or reduced against the parent protein; the word gives no strength.

B1: Redβ K148A (natural protein, bacteriophage λ)
chain: GSHMSTALATLAGKLAERVGMDSVDPQELITTLRQTAFKGDASDAQFIALLIVANQYGLNPWTKEIYAFPDKQNGIVPVVGVDGWSRIINENQQFDGMDFEQDNESCTCRIYRKDRNHPICVTEWMDECRREPFKTREGREITGPWQSHPARMLRHKAMIQCARLAFGFAGIYDKDEAERIVENTAYTAERQPERDITPVNDETMQEINTLLIALDKTWDDDLLPLCSQIFRRDIRASSELTQAEAVKALGFLKQKAAEQKVAA
notes: three residues (Gly-Ser-His) left before the initial methionine after thrombin removal of the tag; Redβ, recombinase of Enterobacteria phage λ, alanine substitution mutant; By gel filtration complexes of approximately 3 subunits; source: E. coli BL21(DE3), purified (HisTrap FF, thrombin digestion, HisTrap FF, Benzamidine FF); not shown: His6, N-terminal, cleaved
As to B1, in the test with Redβ K148A, the binding entry is “binds weakly”.

B2: Redβ R149A (natural protein, bacteriophage λ)
chain: B1 chain with A151K, R152A
notes: as for B1
Take B2: in the test with Redβ R149A, the binding result is reported as “binds weakly”.
